# Source: patent publication US20260217701A1, “SELECTIVE BET INHIBITORS AND USES THEREOF” (Tay Therapeutics Limited, priority 2022, published 2026)
# “And” between values parts separate entries of the source, which are not always exact repeats. Equal entries are not always repeated. Further values from the same series stand in other lists.
# Assay: CIA study: animal body weight
# Settings: individual animals
smiles,measurement,setting,value
"Cn1cc(-c2ccccc2)c(-c2cn(C)c(=O)c3[nH]c(-c4cnn(C(F)(F)F)c4)cc23)cc1=O [Compound A, 6-methyl-4-(1-methyl-2-oxo-5-phenyl-1,2-dihydropyridin-4-yl)-2-(1-(trifluoromethyl)-1H-pyrazol-4-yl)-1,6-dihydro-7H-pyrrolo[2,3-c]pyridin-7-one]",Animal body weight percent change (%),"Day 1, Group 6 (CIA + Compound A 3 mg/kg), 3 mg/kg",−2.98% and 0.58% and 0.00% and −3.59% and −0.60% and 1.84% and 1.91% and 1.28%
same,Animal body weight percent change (%),"Day 1, Group 7 (CIA + Compound A 10 mg/kg), 10 mg/kg",−4.62% and 2.44% and 2.40% and 2.52% and 2.50% and −1.28% and 2.48% and 2.53%
same,Animal body weight percent change (%),"Day 2, Group 5 (CIA + Compound A 1 mg/kg), 1 mg/kg",1.84% and 2.42% and −3.05% and 3.09% and −0.66% and −1.78% and −1.20% and −1.23%
same,Animal body weight percent change (%),"Day 2, Group 6 (CIA + Compound A 3 mg/kg), 3 mg/kg",−3.57% and 0.00% and 1.14% and −2.99% and −0.60% and 1.23% and 1.27% and 1.28%
same,Animal body weight percent change (%),"Day 2, Group 7 (CIA + Compound A 10 mg/kg), 10 mg/kg",−1.73% and 1.83% and 1.80% and 0.00% (2×) and 2.50% and 1.28% and 2.53%
same,Animal body weight percent change (%),"Day 3, Group 5 (CIA + Compound A 1 mg/kg), 1 mg/kg",1.23% and 0.61% and −3.05% and 4.32% and 2.63% and 2.96% and 0.00% and 4.91%
same,Animal body weight percent change (%),"Day 3, Group 6 (CIA + Compound A 3 mg/kg), 3 mg/kg",4.76% and 1.75% and −2.86% and −2.99% and −1.80% and −0.61% and 1.91% and 1.28%
same,Animal body weight percent change (%),"Day 3, Group 7 (CIA + Compound A 10 mg/kg), 10 mg/kg",−2.31% and 1.83% and 2.40% and −0.63% and 6.25% and 1.28% and −2.48% and 1.27%
same,Animal body weight percent change (%),"Day 4, Group 5 (CIA + Compound A 1 mg/kg), 1 mg/kg",3.07% and 0.61% and −3.05% and 2.47% and 3.29% and 0.59% and −0.60% and 3.68%
same,Animal body weight percent change (%),"Day 4, Group 6 (CIA + Compound A 3 mg/kg), 3 mg/kg",−0.60% and 1.17% and 0.00% (2×) and −4.79% and −1.20% and −2.45% and 5.10%
same,Animal body weight percent change (%),"Day 4, Group 7 (CIA + Compound A 10 mg/kg), 10 mg/kg",−2.31% and −0.61% and 1.20% and 0.63% and 5.00% and 0.64% and 0.00% and 2.53%
same,Animal body weight percent change (%),"Day 5, Group 5 (CIA + Compound A 1 mg/kg), 1 mg/kg",4.29% and 7.88% and 0.61% and 6.17% and 2.63% and 1.18% and 2.40% and 4.91%
same,Animal body weight percent change (%),"Day 5, Group 6 (CIA + Compound A 3 mg/kg), 3 mg/kg",−1.19% and 3.51% and 1.71% and −4.19% and −2.40% and 3.07% and 6.37% and −1.28%
same,Animal body weight percent change (%),"Day 5, Group 7 (CIA + Compound A 10 mg/kg), 10 mg/kg",−3.47% and 4.88% and 2.99% and 1.26% and 6.25% and 2.56% and 1.24% and 5.06%
same,Animal body weight percent change (%),"Day 6, Group 5 (CIA + Compound A 1 mg/kg), 1 mg/kg",4.29% and 9.09% and −4.27% and 8.64% and 5.92% and 1.18% and 2.40% and 7.36%
same,Animal body weight percent change (%),"Day 6, Group 6 (CIA + Compound A 3 mg/kg), 3 mg/kg",−2.98% and 1.75% and 0.57% and −4.19% and 1.80% and 2.45% and 7.01% and 0.64%
same,Animal body weight percent change (%),"Day 6, Group 7 (CIA + Compound A 10 mg/kg), 10 mg/kg",−2.89% and 1.83% and 2.99% and 3.77% and 6.25% and 0.64% and 2.48% and 2.53%
same,Animal body weight percent change (%),"Day 7, Group 5 (CIA + Compound A 1 mg/kg), 1 mg/kg",4.91% and 10.30% and −4.27% and 5.56% and 6.58% and 0.59% and 4.19% and 3.68%
same,Animal body weight percent change (%),"Day 7, Group 6 (CIA + Compound A 3 mg/kg), 3 mg/kg",−6.55% and 0.58% and −1.14% and −2.99% and −2.40% and 0.61% and 5.73% and −1.28%
same,Animal body weight percent change (%),"Day 7, Group 7 (CIA + Compound A 10 mg/kg), 10 mg/kg",−5.20% and 2.44% and 3.59% and 0.63% and 5.00% and −1.92% and −1.24% and 3.80%
same,Animal body weight percent change (%),"Day 8, Group 5 (CIA + Compound A 1 mg/kg), 1 mg/kg",1.84%
same,Animal body weight percent change (%),"Day 8, Group 7 (CIA + Compound A 10 mg/kg), 10 mg/kg",−6.36% and 0.00% and −1.20% and 0.63% and 2.50% and −0.64% and −1.86% and 4.43%
same,Animal body weight percent change (%),"Day 9, Group 7 (CIA + Compound A 10 mg/kg), 10 mg/kg",−5.20% and 0.61% and 0.60% and 0.63% and 3.13% and −2.56% and 0.62% and 5.06%
same,Animal body weight percent change (%),"Day 10, Group 5 (CIA + Compound A 1 mg/kg), 1 mg/kg",4.29%
same,Animal body weight percent change (%),"Day 10, Group 6 (CIA + Compound A 3 mg/kg), 3 mg/kg",3.85%
same,Animal body weight percent change (%),"Day 10, Group 7 (CIA + Compound A 10 mg/kg), 10 mg/kg",−4.62% and 0.61% and 2.99% and 1.26% and 4.38% and 1.92% and 0.00% and 4.43%
same,Animal body weight percent change (%),"Day 11, Group 5 (CIA + Compound A 1 mg/kg), 1 mg/kg",4.91%
same,Animal body weight percent change (%),"Day 11, Group 6 (CIA + Compound A 3 mg/kg), 3 mg/kg",5.77%
same,Animal body weight percent change (%),"Day 11, Group 7 (CIA + Compound A 10 mg/kg), 10 mg/kg",−5.20% and 5.49% and 1.80% and 1.89% and 4.38% and −2.56% and −0.62% and 6.33%
same,Animal body weight percent change (%),"Day 12, Group 5 (CIA + Compound A 1 mg/kg), 1 mg/kg",6.75%
